At least one structure is not confirmed: it was looked up by name or label, or the drawing left a doubt.
Biological target: PARP7 (Homo sapiens (Human), UniProt Q7Z3E1)
Assay: Family-wide PARP inhibitor screening assay
Format: biochemical

CC#Cc1ccc2c(=O)[nH]nc(Cc3ccc(F)c(C(=O)N4CCN(c5ccc(C#N)cn5)CC4)c3)c2c1 [Example 10, 6-(4-(2-Fluoro-5-((4-oxo-7-(prop-1-ynyl)-3,4-dihydrophthalazin-1-yl)methyl)benzoyl)piperazin-1-yl)nicotinonitrile]
selectivity across the PARP family (IC50 heat map): selective for PARP7

Reference: patent US20260055079A1, “PHTHALAZINONE COMPOUNDS AS PARP7 INHIBITORS” (AZKARRA THERAPEUTICS, INC., priority 2022, published 2026)
